Source: paper PMC13254595

Biological target: T1, iron regulatory protein 1 (IRP1) (human (endogenous in PANC-1 and Patu-8988)) (UniProt P21399)
T1 sequence: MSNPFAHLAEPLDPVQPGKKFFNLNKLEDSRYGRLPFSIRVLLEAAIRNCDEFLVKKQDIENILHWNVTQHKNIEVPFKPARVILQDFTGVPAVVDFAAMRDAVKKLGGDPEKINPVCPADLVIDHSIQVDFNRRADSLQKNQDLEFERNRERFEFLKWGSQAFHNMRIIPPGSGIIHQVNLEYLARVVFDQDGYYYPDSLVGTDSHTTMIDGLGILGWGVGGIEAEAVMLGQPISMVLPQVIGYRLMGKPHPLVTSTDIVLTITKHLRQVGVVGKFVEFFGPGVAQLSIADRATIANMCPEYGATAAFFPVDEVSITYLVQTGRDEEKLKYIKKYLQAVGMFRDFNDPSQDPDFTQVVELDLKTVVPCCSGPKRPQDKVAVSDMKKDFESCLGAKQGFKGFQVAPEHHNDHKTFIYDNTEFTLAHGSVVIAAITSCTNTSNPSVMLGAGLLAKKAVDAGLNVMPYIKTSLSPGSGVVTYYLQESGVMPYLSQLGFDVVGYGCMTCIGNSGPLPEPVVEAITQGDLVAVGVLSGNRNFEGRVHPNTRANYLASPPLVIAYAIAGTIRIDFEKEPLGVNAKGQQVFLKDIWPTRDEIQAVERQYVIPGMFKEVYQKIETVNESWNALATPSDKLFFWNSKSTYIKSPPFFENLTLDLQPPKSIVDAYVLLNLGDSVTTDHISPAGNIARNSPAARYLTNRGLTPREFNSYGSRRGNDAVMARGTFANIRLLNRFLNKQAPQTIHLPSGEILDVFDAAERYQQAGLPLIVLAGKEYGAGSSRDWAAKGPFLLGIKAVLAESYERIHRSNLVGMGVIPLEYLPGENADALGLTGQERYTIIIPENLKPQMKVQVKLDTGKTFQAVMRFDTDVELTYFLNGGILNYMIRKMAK
Assay: affinity purification with mass spectrometry; co-immunoprecipitation with IRP1 antibody, then liquid chromatography-mass spectrometry (gel strip); hits intersected with PRO-DIA proteome (IRP1-overexpressed) and two GSEA gene sets; cell line not stated

binding: binds
B1: A + T rich interaction domain protein 3a (ARID3A) (protein, UniProt Q99856 1-593)
chain: MKLQAVMETLLQRQQRARQELEARQQLPPDPPAAPPGRARAAPDEDREPESARMQRAQMAALAAMRAAAAGLGHPASPGGSEDGPPGSEEEDAAREGTPGSPGRGREGPGEEHFEDMASDEDMKPKWEEEEMEEDLGEDEEEEEEDYEDEEEEEDEEGLGPPGPASLGTTALFPRKAQPPQAFRGDGVPRVLGGQERPGPGPAHPGGAAHVAPQLQPPDHGDWTYEEQFKQLYELDGDPKRKEFLDDLFSFMQKRGTPVNRIPIMAKQVLDLFMLYVLVTEKGGLVEVINKKLWREITKGLNLPTSITSAAFTLRTQYMKYLYPYECEKRGLSNPNELQAAIDSNRREGRRQSFGGSLFAYSPGGAHGMLSSPKLPVSSLGLAASTNGSSITPAPKIKKEEDSAIPITVPGRLPVSLAGHPVVAAQAAAVQAAAAQAAVAAQAAALEQLREKLESAEPPEKKMALVADEQQRLMQRALQQNFLAMAAQLPMSIRINSQASESRQDSAVNLTGTNGSNSISMSVEINGIMYTGVLFAQPPAPTPTSAPNKGGGGGGGSSSNAGGRGGNTGTSGGQAGPAGLSTPSTSTSNNSLP

No constants are given. Whether binding was seen depends on the method and setting. Binding seen in cells or lysates may run through a third protein. Here binding means that the protein was enriched with, or labelled near, the bait; the list need not be complete.
